Several values for one entry are separate records, joined by “and”; a condition that tells them apart may be missing. Equal values may be shown once. About 1,200 (0.34%) of roughly 350,000 compounds were called active. This list was built around the results that the source calls inconclusive (neither active nor inactive); the mix of calls is not that of the screen. Calls follow the shape of the dose curve; as a rule, active = well fitted inhibition curve with a large enough effect; inconclusive = small, poorly fitted or top-dose-only effect; inactive = no such curve, though single readings can be large or run the other way. Potencies of inconclusive entries are doubtful fits and often do not repeat.
Biological target: DNA repair nuclease/redox regulator APEX1 (Homo sapiens) (UniProt P27695)
Experiment: qHTS Assay for Inhibitors of the Human Apurinic/apyrimidinic Endonuclease 1 (APE1); also: nearly all actives have a fitted effect of over 55% in size;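 as to activity change, negative = inhibition: plate controls were vehicle for no effect and reference inhibitor for full effect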
Conditions: recombinant APE1, TAMRA/BHQ-2 abasic DNA cleavage fluorescence; activity change, negative = inhibition: at 65.8 µM (top of the series)
Summary of the method: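 Incision of a quenched TAMRA/BHQ-2 THF abasic-site duplex (50 nM) by 0.75 nM APE1, after 15 min compound preincubation, measured as fluorescence increase over three 60 s reads. Values normalized to buffer, DMSO and NSC13755 control wells.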
Potency is read from the fitted curve at half-maximal effect.

By UniProt entry, the sequences of proteins in these tests, tags left out.
UniProt P27695, whole entry, looked up: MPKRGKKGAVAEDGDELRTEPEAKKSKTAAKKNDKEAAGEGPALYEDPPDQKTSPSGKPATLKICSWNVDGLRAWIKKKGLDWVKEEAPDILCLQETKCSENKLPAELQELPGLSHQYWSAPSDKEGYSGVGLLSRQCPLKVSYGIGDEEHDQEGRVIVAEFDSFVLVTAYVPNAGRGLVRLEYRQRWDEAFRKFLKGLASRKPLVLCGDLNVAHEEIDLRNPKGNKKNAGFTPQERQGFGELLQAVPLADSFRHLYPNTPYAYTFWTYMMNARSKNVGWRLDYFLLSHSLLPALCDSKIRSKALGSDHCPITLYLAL

SMILES	Potency	activity change, negative = inhibition
C[n+]1cccc(C2C(C#N)=C(N)Oc3c2ccc2ccccc32)c1 (centres undefined)	inconclusive: 8.91 µM [inhibitor, full curve, poor fit]	–
O=S(=O)(c1ccc(F)cc1F)N1CCCN(c2ccc(C(F)(F)F)cn2)CC1	inconclusive: 3.16 µM [inhibitor, single point]	–
CCOC(=O)C1(Cc2ccc(OC)cc2)CCN(C(=O)CCn2cccn2)CC1	inconclusive: 20 µM [inhibitor, partial curve]	–
CC(=O)c1ccc(S(=O)(=O)N2CCN(C(=O)/C=C/c3ccc4ccccc4n3)CC2)cc1	inconclusive: 3.55 µM [inhibitor, single point]	–
CC(C)(C)NS(=O)(=O)c1cccc(-c2nnc(SCc3ccc(C(=O)O)cc3)n2-c2ccccc2)c1	–	inactive: 50.1%
CCC(=O)N1CCc2cc(Br)cc(S(=O)(=O)N3CCC(C(=O)NC(C)(C)C)CC3)c21	inconclusive: 23.8 µM [inhibitor, single point]	–
NC(=O)C1(N2CCCCC2)CCN(C(=O)CSc2nc3ccccc3[nH]2)CC1	inconclusive: 44.7 µM [inhibitor, single point]	–
OC(CNCCNc1ncccc1C(F)(F)F)Cn1ccc2ccccc21 (centres undefined)	inconclusive: 35.5 µM [inhibitor, single point]	–
NC(=S)n1[nH]c(-c2ccc([N+](=O)[O-])cc2)c(N=Nc2cccc(Cl)c2)c1=O	–	inactive: -6.87%
Cc1cc(-c2ccccc2)nc(N/N=C/c2ccc([N+](=O)[O-])cc2)n1	inconclusive: 28.2 µM [inhibitor, single point]	–
O=C(O)CCc1ccc(-c2cccs2)n1-c1ccc(C(=O)O)cc1	inconclusive: 44.7 µM [inhibitor, single point]	–
Cc1ccc(S(=O)(=O)NNC(=S)Nc2cccc(F)c2)cc1	inconclusive: 2.82 µM [inhibitor, partial curve, poor fit]	–
CCCSCCCNC(=O)c1cc2c(s1)CS(=O)(=O)C2	inconclusive: 10 µM [inhibitor, partial curve, poor fit]	–
O=C(Nc1cc([N+](=O)[O-])ccc1F)c1ccc2c(c1)OCCO2	inconclusive: 0.794 µM [inhibitor, full curve, poor fit]	–
CC(=O)Nc1ccc(C2=NNC(=Nc3ccc(S(=O)(=O)N4CCOCC4)cc3)SC2)cc1	inconclusive: 7.94 µM [inhibitor, single point]	–
Cc1c(CCC(=O)O)c(=O)oc2c(C)c3occ(-c4ccc(Cl)cc4)c3cc12	inconclusive: 21.2 µM [inhibitor, single point]	–
C/C(=N/NC(=O)CNC(=O)Cc1ccccc1)c1ccc(Cl)cc1	inconclusive: 5.01 µM [inhibitor, single point]	–
Cc1ccc(C)c(N=Cc2cc3c(cc2[N+](=O)[O-])OCO3)c1	–	inactive: 0.374%
CN(C)c1ccc(NC(=O)c2ccc(Cn3cc([N+](=O)[O-])cn3)cc2)cc1	inconclusive: 0.0035 µM [inhibitor, full curve, poor fit]	–
Cc1cc(C=O)c(C)n1-c1sc2c(c1C(=O)O)CCCC2	inconclusive: 31.6 µM [inhibitor, single point]	–
CC(C)(C)c1ccccc1OCCOCCSc1ncccn1	inconclusive: 3.98 µM [inhibitor, single point]	–
O=C(NN=Cc1cc(Br)c(O)c(Br)c1)c1ccccc1NS(=O)(=O)c1cccs1	–	inactive: 4.07%

SMILES	Potency	activity change, negative = inhibition
O=C(O)c1cccc(-c2ccc(/C=C3/SC(=Nc4ccccc4)N(Cc4cccnc4)C3=O)o2)c1	active: 7.52 µM	–
CN(CC(=O)NCCC1=CCCCC1)S(=O)(=O)c1ccc2c(c1)c(=O)n(C)c(=O)n2C	–	inactive: -3.73%
O=C(c1ccc2c(c1)OCO2)N1CCN=C1SCc1cccnc1	inconclusive: 25.1 µM [inhibitor, partial curve, poor fit]	–
COc1ccc(-c2cc(C(F)F)n3ncc(C(=O)N4CCN(C(=O)c5ccco5)CC4)c3n2)cc1	inconclusive: 0.447 µM [inhibitor, full curve, poor fit]	–
CCOC(=O)C(C)Sc1ccc2nnc(-c3ccc(F)cc3)n2n1 (centres undefined)	inconclusive: 44.7 µM [inhibitor, single point]	–
CC(C)=CCC/C(C)=C/CO/N=C1/C[C@@H](O)[C@@H](O)[C@@H]2[C@@H]3C(=O)N(Cc4ccccc4)C(=O)[C@H]3CC[C@H]12	–	inactive: 14.1% [at 12.4 µM]
CC(=O)Nc1cccc(NC(=O)Nc2cccc(Cl)c2C)c1	–	inactive: -2.07%
COc1ccc(C2C(C#N)=C(N)OC3=C2C(=O)CC(C)(C)C3)cc1 (centres undefined)	–	inactive: -3.27%
CCC1=NNc2cccc3c(OC)ccc1c23	inconclusive: 20 µM [inhibitor, partial curve]	–
O=S(=O)(c1cccc2ccccc12)N1CCCCC1	–	inactive: 2.99%
CC1=CC(C)(C)N(C(=O)CSc2nnc(N)s2)c2c(C)cc(C)cc21	–	inactive: 0.092%
CCN(CC)S(=O)(=O)c1ccc(NC(=O)COc2nc3ccccc3nc2N2CCOCC2)cc1	inconclusive: 22.4 µM [inhibitor, single point]	–
Cc1cc(NS(=O)(=O)c2ccc(NC(=O)CCc3ccccc3)cc2)no1	inconclusive: 39.8 µM [inhibitor, single point]	–
Clc1ccccc1-c1cc(COc2ccc3ccccc3c2)no1	inconclusive: 35.5 µM [inhibitor, single point]	–
CCCCOc1[nH]c2nc(-c3ccco3)n(Cc3ccco3)c(=N)c2c1C#N	inconclusive: 7.94 µM [inhibitor, full curve, poor fit]	–
COc1cc([N+](=O)[O-])ccc1NC(=O)/C=C\C(=O)O	inconclusive: 0.0035 µM [inhibitor, full curve, poor fit]	–
CC(=O)c1c(C)[nH]c(C(=O)NC(C)c2ccccc2)c1C (centres undefined)	inconclusive: 28.2 µM [inhibitor, single point]	–
COc1ccccc1CCn1c(=O)c(-c2ccc(F)c(F)c2)nc2cncnc21	inconclusive: 7.08 µM [inhibitor, single point]	–
CCN(CC)CCCC(C)Nc1c2ccc(Cl)cc2nc2ccc(OC)cc12 (centres undefined)	active: 28.2 µM	–
C=C1CC[C@@H]2[C@](C)(CO)[C@H](O)CC[C@@]2(C)[C@@H]1/C=C/C1=CCOC1=O	inconclusive: 31.6 µM [inhibitor, single point]	–
COc1cc(C(=O)Nc2nc(-c3cccs3)cs2)cc(OC)c1OC	inconclusive: 44.7 µM [inhibitor, single point]	–
CC(C(=O)Nc1ccccc1C(=O)N1CCOCC1)N(c1ccc(Cl)cc1)S(C)(=O)=O (centres undefined)	–	inactive: -3.85%

SMILES	Potency	activity change, negative = inhibition
Cc1nc2c(-c3ccc(Cl)cc3)c(C)[nH]n2c(=O)c1Cc1ccccc1	inconclusive: 25.1 µM [inhibitor, single point]	–
COc1ccc2cnnc(SCC(=O)Nc3ccccc3)c2c1OC	inconclusive: 0.224 µM [inhibitor, full curve, poor fit]	–
CN(C)S(=O)(=O)N(CC(=O)N(Cc1ccccc1)Cc1ccccc1)c1ccccc1	inconclusive: 28.2 µM [inhibitor, partial curve]	–
O=C(O)c1ccc(CN2C(=O)CSC2=S)cc1	inconclusive: 28.2 µM [inhibitor, single point]	–
S=C(N/N=C/c1cccc2ccccc12)Nc1cccc(Cl)c1	inconclusive: 3.16 µM [inhibitor, partial curve]	–
O=C(COc1ccc(-n2cnnn2)cc1)Nc1cccc(Cl)c1Cl	–	inactive: -3.28%
N#CCc1ccc(NC(=O)/C=C/c2ccc([N+](=O)[O-])o2)cc1	inconclusive: 39.8 µM [inhibitor, single point]	–
O=C(COC(=O)c1ccc(S(=O)(=O)N2CCc3ccccc3C2)cc1)NC(=O)NCc1ccco1	inconclusive: 39.8 µM [inhibitor, single point]	–
O=C(C1CC1)N1CCc2cc(S(=O)(=O)N3CCOCC3)ccc21	inconclusive: 0.708 µM [inhibitor, full curve, poor fit]	–
O=S(=O)(Nc1ccc2oc(-c3ccccc3)nc2c1)c1ccccc1	inconclusive: 7.08 µM [inhibitor, single point]	–
Cc1nnc(N/N=C\c2ccc(-c3cccc(C(=O)O)c3)o2)n1N	inconclusive: 44.7 µM [inhibitor, single point]	–
COc1ccc(C2=Nn3c(nnc3-c3ccco3)SC2)cc1	–	inactive: 7.9%
CCN(CC)S(=O)(=O)c1cc(NC(=O)c2n[nH]c(=O)c3ccccc23)ccc1C	inconclusive: 39.8 µM [inhibitor, single point]	–
FC(F)(F)c1cc(CO[C@H]2CCCN[C@H]2c2ccccc2)cc(C(F)(F)F)c1	inconclusive: 12.6 µM [inhibitor, single point]	–
CC1CCCCN1C(=O)CSc1nc2ccccc2[nH]1 (centres undefined)	inconclusive: 35.5 µM [inhibitor, single point]	–
CCOC(=O)c1c(C)c(C(=O)N2CCCCCC2)c(C)n1C	inconclusive: 44.7 µM [inhibitor, single point]	–
CCCCC#Cc1ccc(C(=O)NNC(=O)Nc2ccccc2)o1	–	inactive: 5.08%
Cn1cccc1-c1cc(C(=O)N/N=C/c2cccc(O)c2)[nH]n1	inconclusive: 0.005 µM [inhibitor, full curve, poor fit]	–
Cc1nc(SC2CC(=O)N(c3cc(Cl)cc(Cl)c3)C2=O)nc2c1CCCC2 (centres undefined)	inconclusive: 44.7 µM [inhibitor, single point]	–
C[C@@H]1CN(c2c(F)c(N)c3c(=O)c(C(=O)O)cn(C4CC4)c3c2F)C[C@H](C)N1	inconclusive: 28.2 µM [inhibitor, single point] and inconclusive: 15.8 µM [inhibitor, single point]	–

An excerpt from above in order of number of heavy atoms, falling.
SMILES	Potency	activity change, negative = inhibition
CCN(CC)S(=O)(=O)c1cc(NC(=O)c2n[nH]c(=O)c3ccccc23)ccc1C	inconclusive: 39.8 µM [inhibitor, single point]	–
O=C(C1CC1)N1CCc2cc(S(=O)(=O)N3CCOCC3)ccc21	inconclusive: 0.708 µM [inhibitor, full curve, poor fit]	–
O=C(O)c1ccc(CN2C(=O)CSC2=S)cc1	inconclusive: 28.2 µM [inhibitor, single point]	–

From PubChem BioAssay AID2517 (National Center for Advancing Translational Sciences (NCATS), 2010)
